Data taken from PubChem BioAssay AID504467 (National Center for Advancing Translational Sciences (NCATS), 2011).
Hit rate of the full screen: of about 330,000 compounds, about 7,700 (2.3%) were called active. The inconclusive results got no clear call from the source; some entries with a clear call stand among them for comparison. The call rests on the fitted dose curve; in most records, active means well fitted inhibition curve with a large enough effect; inconclusive means small, poorly fitted or top-dose-only effect, or effect the other way; inactive means flat fitted curve, though single readings scatter. Where the call is inconclusive, the potency comes from a doubtful curve fit.

Test: qHTS screen for small molecules that inhibit ELG1-dependent DNA repair in human embryonic kidney (HEK293T) cells expressing luciferase-tagged ELG1; further: nearly all actives have a fitted effect of over 55% in size
Conditions: HEK293T ELG1-luciferase reporter, luminescence, 16 h, DNA damage induced by 5-fluorouridine; activity change, negative = inhibition: at 46.1 µM (top of the series)
How it was run: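 Overnight (16 hr) co-exposure of 2,000 cells/well to 5-fluorouridine and compound at 37 °C preceded detection. Luciferase was quantified via ONE-Glo luminescence; loss of signal denotes inhibition.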
On the % scale 0 is the no-effect control and ±100 the full control effect; potency means the concentration at half of the fitted maximal effect.

| Compound | activity change, negative = inhibition | Potency |
| --- | --- | --- |
| C=CCN(C(=O)c1csnn1)C(C(=O)NC1CCCC1)c1ccccc1 (configuration not stated) | inactive: -10.5% | – |
| O=C(N/N=C/c1coc2ccccc2c1=O)c1cc2ccccc2o1 | – | inconclusive: 18.4 µM [inhibitor, partial curve] |
| CN(C)c1cc[n+](CC(=O)c2ccc(OC(F)F)cc2)cc1 | – | inconclusive: 14.6 µM [inhibitor, partial curve] |
| CCn1nc(C(=O)NNC(=O)c2ccccc2OCc2c(C)noc2C)c2ccccc2c1=O | – | inconclusive: 23.1 µM [inhibitor, partial curve, poor fit] |
| COc1ccc2oc3cc(C)[n+]([O-])c(-c4ccc(C)cc4)c3c2c1 | – | inconclusive: 23.1 µM [inhibitor, single point] |
| NS(=O)(=O)c1ccc(CCNC(=O)C2CCN(c3ncnc4c3nc3n4CCCCC3)CC2)cc1 | inactive: -25.1% | – |
| C#CCOCCOCCOCCNc1nc(N2CCN(C(=O)CCCCCCCCCCNC(=O)Cn3cc(C[C@@H](C)O)nn3)CC2)nc(N2CCN(C(=O)CCCCCCCCCCNC(=O)[C@@H]([C@H](C)CC)n3cc(CCCCCN)nn3)CC2)n1 | – | inconclusive: 28.2 µM [inhibitor, single point] |
| CCC(CC)C(=O)Nc1nnc(S(=O)(=O)N2CCCCCC2)s1 | inactive: 19.5% | – |
| CCn1ncc(/C=C/C(=O)Nc2c(C)nn(Cc3ccc(Cl)cc3Cl)c2C)c1C | inactive: -23.6% | – |
| COc1ccccc1C(=O)NC1CCN(C(=O)Nc2ccc(F)cc2)CC1 | inactive: -0.626% | – |
| CCNC(=S)N(CCO)Cc1cc2cc3c(cc2[nH]c1=O)OCO3 | inactive: 21.4% | – |
| CCOc1ccccc1/C=C(\NC(=O)c1ccccc1)C(=O)NCCC(=O)O | – | inconclusive: 23.1 µM [activator, partial curve] |
| Cc1cccc(-c2cc(C(=O)Nc3sc(C)c(C)c3C(N)=O)c3ccccc3n2)c1 | inactive: -13.3% | – |
| O=C(NC1CCCCC1)c1ccc2c(c1)OCCO2 | – | inconclusive: 18.3 µM [activator, partial curve] |
| CCCCOc1cccc(OCC(=O)Nc2nc3ccccc3[nH]2)c1 | inactive: 8.15% | – |
| CC(=O)c1cc2c(cc1N(C(=O)Cn1nnc3ccccc31)C(C(=O)NCCC(C)C)c1cccnc1)OCO2 (configuration not stated) | inactive: 5.16% | – |
| COc1ccc(S(=O)(=O)NCCc2ccccc2)cc1 | – | inconclusive: 18.4 µM [activator, partial curve, poor fit] |
| CC(=O)NNC(=S)NCCc1ccccc1 | inactive: 10.5% | – |
| O=C(CCCCCNC(=S)Nc1ccccc1)C[N+](=O)[O-] | inactive: -10.9% | – |
| CCN(CC)C(=O)COc1ccc2c3c(c(=O)oc2c1C)CCCC3 | – | inconclusive: 18.3 µM [inhibitor, partial curve, poor fit] |
| Cc1ccc(Nc2ncnc(-n3cccc3)n2)cc1Cl | – | inconclusive: 7.3 µM [activator, partial curve] |
| Cc1cccc(OCC(=O)Nc2ccc(N3CCN(C(=O)c4ccco4)CC3)cc2)c1 | – | inconclusive: 23.1 µM [inhibitor, partial curve] |
| C[C@H](NC(=O)c1nc[nH]c1C(=O)NCc1ccccc1)C(=O)OCc1ccccc1 | inactive: 3.67% | – |
| CN(C)/C=C/C(=O)c1cc(N2CCOCC2)ccc1[N+](=O)[O-] | inactive: 5.3% | – |

| Compound | activity change, negative = inhibition | Potency |
| --- | --- | --- |
| Cn1/c(=N/N=C/c2ccc([N+](=O)[O-])cc2)sc2ccccc21 | – | inconclusive: 16.4 µM [activator, partial curve] |
| CCOc1ccccc1NC(=S)NC(=O)CCc1ccccc1 | inactive: -23.7% | – |
| COc1cc(/C=N/NC(=O)c2cc(-c3ccco3)nc3ccccc23)cc(OC)c1O | – | inconclusive: 8.2 µM [inhibitor, partial curve] |
| COc1ccc(OC)c(-c2csc(NC(=O)C3=NNC(=O)CC3)n2)c1 | – | inconclusive: 29.1 µM [inhibitor, single point] |
| Cc1nn(Cc2ccc(C(=O)N/N=C/c3ccncc3)o2)c(C)c1Cl | – | inconclusive: 23.1 µM [inhibitor, partial curve, poor fit] |
| Oc1ccc(N=C/C=C/c2ccc(Br)cc2)cc1-c1nc2ccccc2s1 | – | inconclusive: 20.6 µM [activator, partial curve] |
| CCc1cc2ccc(OC)cc2nc1SCC(=O)N1CCN(C(=O)c2ccco2)CC1 | – | active: 20.6 µM |
| CC(=O)c1cccc(NC(=O)CNC(=O)Cc2cccc3ccccc23)c1 | – | inconclusive: 3.66 µM [inhibitor, partial curve, poor fit] |
| COC(=O)[C@@]1(Cc2ccc(F)cc2)[C@H]2c3cc(C(=O)N(C)C)n(CCc4ccc(OC)c(Br)c4)c3C[C@H]2CN1C(=O)c1ccccc1 | inactive: -7.75% | – |
| Fc1ccccc1NC(=S)N(CCN1CCCCCC1)Cc1cccs1 | – | inconclusive: 29.1 µM [inhibitor, single point] |
| O=C(Nc1cc(C(F)(F)F)ccc1Cl)C(Sc1cccc[n+]1[O-])c1ccccc1 (configuration not stated) | inactive: 6.96% | – |
| Cc1ccc(NC(=O)CSc2ncccn2)c([N+](=O)[O-])c1 | – | inconclusive: 18.3 µM [activator, single point] |
| CCCN1CCC(=O)N([C@H](CSc2ccc(Br)cc2)c2ccccc2)CC1 | – | inconclusive: 13 µM [activator, partial curve] |
| Cc1csc(SCC(=O)Nc2ccc(F)cc2Cl)n1 | – | inconclusive: 23.1 µM [activator, single point] |
| COc1ccccc1N/N=C/c1ccc2c(c1)OCO2 | – | inconclusive: 18.4 µM [activator, partial curve] |
| COC(=O)C1C(=O)C2=C(CC1C)NC(C)=C(C(=O)OCCOc1ccccc1)C2c1ccc(C)o1 (configuration not stated) | – | active: 23.1 µM |
| CCOc1ccc(C2c3c(oc4ccccc4c3=O)C(=O)N2CCCN2CCOCC2)cc1 (configuration not stated) | – | inconclusive: 8.2 µM [activator, single point] |
| CCOc1ncccc1C(=O)OCC(=O)c1ccccc1 | inactive: 9.74% | – |
| CC(C)COc1cccc(-c2cc(C(=O)N/N=C/c3ccncc3)c3ccccc3n2)c1 | – | inconclusive: 18.3 µM [activator, single point] |
| CC(C)Nc1ccc(Cl)cc1[N+](=O)[O-] | – | inconclusive: 29.1 µM [inhibitor, single point] |
| CC1Cc2ccccc2N1C(=O)c1nn(C)cc1Br (configuration not stated) | – | inconclusive: 23.1 µM [activator, partial curve, poor fit] |
| Cc1ccccc1-n1c(SCC(=O)Nc2ccccc2Cl)nc2n[nH]c(C)c2c1=N | inactive: -2.96% | – |
| N#CCSc1ncnc2sc3c(c12)CCC3 | inactive: 0.572% | – |
| Fc1cccc(NC(=S)Nc2cccc3ccccc23)c1 | – | inconclusive: 29.1 µM [inhibitor, partial curve, poor fit] |

| Compound | activity change, negative = inhibition | Potency |
| --- | --- | --- |
| COc1ccc(S(=O)(=O)N2CCCCC2)cc1NC(=O)CCc1nc2ccccc2c(=O)[nH]1 | – | inconclusive: 2.59 µM [inhibitor, partial curve, poor fit] |
| COc1cc(CCCN2C(N)=NC[C@@H]2Cc2ccc(O)cc2)cc(OC)c1OC | – | inconclusive: 29.1 µM [activator, partial curve, poor fit] |
| CCN(C(=O)c1ccc2c(SCC(=O)O)c3c(nc2c1)CCC3)c1cc(Cl)ccc1OC | inactive: -2.19% | – |
| CCn1c(C)csc1=NC(=O)c1ccccc1O | – | inconclusive: 2.82 µM [activator, partial curve, poor fit] |
| CCC(C)[C@H](NC(=O)NCc1ccc(F)cc1)C(=O)O (some centres not stated) | – | inconclusive: 13 µM [activator, partial curve, poor fit] |
| CCCOc1ccc(CCCN=C(N)N)cc1Cl | – | active: 13 µM |
| CCn1c(CN2CCN(c3ccc(Cl)cc3)CC2)nc2ccccc21 | – | inconclusive: 2.31 µM [inhibitor, partial curve, poor fit] |
| CSc1ccccc1N=Cc1nc(-c2ccccc2)oc1O | inactive: 12% | – |
| Cc1ccc(C2CC(c3cccs3)=NN2C(=O)CSc2nc(=O)n3ccc(C)cc3n2)cc1 (configuration not stated) | – | inconclusive: 7.3 µM [inhibitor, single point] |
| COC(=O)c1ccc(NN=Nc2ccc(C)cc2)cc1 | – | inconclusive: 7.31 µM [activator, partial curve] |
| Cc1c(C(=O)N2CCC(C)CC2)sc2ncnc(N(C)c3ccccc3)c12 | – | inconclusive: 18.4 µM [inhibitor, single point] |
| COc1ccc(NC(=O)CCC2CCCCC2)cc1S(=O)(=O)N1CCCCC1 | – | inconclusive: 23.1 µM [inhibitor, partial curve] |
| Cc1ccc(-n2ncc3c(NCC4CCCO4)ncnc32)c(C)c1 (configuration not stated) | inactive: -4.42% | – |
| Cc1cc(-c2nn(-c3ccccc3F)cc2CN(C)CC(O)CO)c(C)s1 (configuration not stated) | inactive: -23.5% | – |
| O=[N+]([O-])c1ccc([N+](=O)[O-])c(Nc2ccc(N3CCOCC3)cc2)c1 | inactive: 4.37% | – |
| COc1ccc(-c2cc3cc(OC)c(OC)cc3c(C)n2)cc1 | inactive: 7.14% | – |
| COc1ccc2nc(N(Cc3ccccc3)C(=O)CCNC(C)=O)sc2c1 | – | inconclusive: 23.1 µM [activator, single point] |
| CCc1ccc(Nc2n[n+](-c3ccccc3)c(-c3cc(OC)c(OC)cc3Br)s2)cc1 | inactive: -12.4% | – |
| O=C(CN1CCOCC1)Nc1ccc(Cl)cn1 | inactive: 5.47% | – |
| O=C(CN1C(=O)NC2(CCCCCC2)C1=O)Nc1ccc(Br)cc1Br | inactive: -10.5% | – |
| O=C(CN1C(=O)CS/C1=C\c1nc(-c2ccc(Cl)cc2)cs1)Nc1cccnc1Cl | inactive: 5.39% | – |
| Cc1cccc2nc(-c3cccc(NC(=O)Cc4ccccc4)c3)cn12 | – | inconclusive: 29.1 µM [inhibitor, single point] |
| CCCCn1c(N)c(N(CCOC)C(=O)c2cccc(-n3cnnn3)c2)c(=O)[nH]c1=O | inactive: 1.07% | – |
| COC(=O)CSc1[nH]c2ccc(Br)cc2c1[N+](=O)[O-] | inactive: -15.8% | – |

Not a retest: six of the compounds above.

| Compound | activity change, negative = inhibition | Potency |
| --- | --- | --- |
| O=[N+]([O-])c1ccc([N+](=O)[O-])c(Nc2ccc(N3CCOCC3)cc2)c1 | inactive: 4.37% | – |
| COc1ccc(-c2cc3cc(OC)c(OC)cc3c(C)n2)cc1 | inactive: 7.14% | – |
| COc1ccc2nc(N(Cc3ccccc3)C(=O)CCNC(C)=O)sc2c1 | – | inconclusive: 23.1 µM [activator, single point] |
| CCc1ccc(Nc2n[n+](-c3ccccc3)c(-c3cc(OC)c(OC)cc3Br)s2)cc1 | inactive: -12.4% | – |
| O=C(CN1CCOCC1)Nc1ccc(Cl)cn1 | inactive: 5.47% | – |
| O=C(CN1C(=O)NC2(CCCCCC2)C1=O)Nc1ccc(Br)cc1Br | inactive: -10.5% | – |
